The source of these data is publication doi:10.1101/2022.11.30.518474.

Holding throughout (assay): co-IP
Experiment [1] addresses Hexokinase 1 (Hxk1), V5- or GFP-tagged, in yeast extract (S. cerevisiae) (UniProt P04806).
Experiment [2] deals with Hexokinase 2 (Hxk2), wild type, V5- or GFP-tagged, in yeast extract (S. cerevisiae) (UniProt P04807).
Experiment [3] has as its target Glucokinase 1 (Glk1), V5- or GFP-tagged, in yeast extract (S. cerevisiae) (UniProt P17709).
The target in experiment [4] is Hxk2^Δ7-16, V5- or GFP-tagged, in yeast extract (S. cerevisiae) (UniProt P04807).
In experiment [5] the target is Hxk2^S15D, V5- or GFP-tagged, in yeast extract (S. cerevisiae) (UniProt P04807).
The target of experiment [6] is Hxk2^K13A, V5- or GFP-tagged, in yeast extract (S. cerevisiae) (UniProt P04807).
The target in experiment [7] is Hxk2^D106A, V5- or GFP-tagged, in yeast extract (S. cerevisiae) (UniProt P04807).

No constants are given. Whether binding was seen depends on the method and setting. Binding seen in cells or lysates may run through a third protein. Some entries that bind do so weakly or less than the wild type. Where a sequence is shown, tags or fusion partners need not be part of it.

B1: Hexokinase 1 (Hxk1), V5- or GFP-tagged, in yeast extract (enzyme, UniProt P04806 1-485)
chain: MVHLGPKKPQARKGSMADVPKELMDEIHQLEDMFTVDSETLRKVVKHFIDELNKGLTKKGGNIPMIPGWVMEFPTGKESGNYLAIDLGGTNLRVVLVKLSGNHTFDTTQSKYKLPHDMRTTKHQEELWSFIADSLKDFMVEQELLNTKDTLPLGFTFSYPASQNKINEGILQRWTKGFDIPNVEGHDVVPLLQNEISKRELPIEIVALINDTVGTLIASYYTDPETKMGVIFGTGVNGAFYDVVSDIEKLEGKLADDIPSNSPMAINCEYGSFDNEHLVLPRTKYDVAVDEQSPRPGQQAFEKMTSGYYLGELLRLVLLELNEKGLMLKDQDLSKLKQPYIMDTSYPARIEDDPFENLEDTDDIFQKDFGVKTTLPERKLIRRLCELIGTRAARLAVCGIAAICQKRGYKTGHIAADGSVYNKYPGFKEAAAKGLRDIYGWTGDASKDPITIVPAEDGSGAGAAVIAALSEKRIAEGKSLGIIGA
Turning to B1, the binding result in experiment [1] and in experiment [2] was “binds” throughout.

B2: Glucokinase 1 (Glk1), V5- or GFP-tagged, in yeast extract (enzyme, UniProt P17709 1-500)
chain: MSFDDLHKATERAVIQAVDQICDDFEVTPEKLDELTAYFIEQMEKGLAPPKEGHTLASDKGLPMIPAFVTGSPNGTERGVLLAADLGGTNFRICSVNLHGDHTFSMEQMKSKIPDDLLDDENVTSDDLFGFLARRTLAFMKKYHPDELAKGKDAKPMKLGFTFSYPVDQTSLNSGTLIRWTKGFRIADTVGKDVVQLYQEQLSAQGMPMIKVVALTNDTVGTYLSHCYTSDNTDSMTSGEISEPVIGCIFGTGTNGCYMEEINKITKLPQELRDKLIKEGKTHMIINVEWGSFDNELKHLPTTKYDVVIDQKLSTNPGFHLFEKRVSGMFLGEVLRNILVDLHSQGLLLQQYRSKEQLPRHLTTPFQLSSEVLSHIEIDDSTGLRETELSLLQSLRLPTTPTERVQIQKLVRAISRRSAYLAAVPLAAILIKTNALNKRYHGEVEIGCDGSVVEYYPGFRSMLRHALALSPLGAEGERKVHLKIAKDGSGVGAALCALVA
B2: the binding result in experiment [3] is listed as “binds”.

B3: Hxk2^Δ7-16, V5- or GFP-tagged, in yeast extract (enzyme, UniProt P04807)
chain: MVHLGPADVPKELMQQIENFEKIFTVPTETLQAVTKHFISELEKGLSKKGGNIPMIPGWVMDFPTGKESGDFLAIDLGGTNLRVVLVKLGGDRTFDTTQSKYRLPDAMRTTQNPDELWEFIADSLKAFIDEQFPQGISEPIPLGFTFSFPASQNKINEGILQRWTKGFDIPNIENHDVVPMLQKQITKRNIPIEVVALINDTTGTLVASYYTDPETKMGVIFGTGVNGAYYDVCSDIEKLQGKLSDDIPPSAPMAINCEYGSFDNEHVVLPRTKYDITIDEESPRPGQQTFEKMSSGYYLGEILRLALMDMYKQGFIFKNQDLSKFDKPFVMDTSYPARIEEDPFENLEDTDDLFQNEFGINTTVQERKLIRRLSELIGARAARLSVCGIAAICQKRGYKTGHIAADGSVYNRYPGFKEKAANALKDIYGWTQTSLDDYPIKIVPAEDGSGAGAAVIAALAQKRIAEGKSVGIIGA
In the case of B3, in experiment [4], the binding result is listed as “no binding”.

B4: Hexokinase 2 (Hxk2), wild type, V5- or GFP-tagged, in yeast extract (enzyme, UniProt P04807 1-486)
chain: MVHLGPKKPQARKGSMADVPKELMQQIENFEKIFTVPTETLQAVTKHFISELEKGLSKKGGNIPMIPGWVMDFPTGKESGDFLAIDLGGTNLRVVLVKLGGDRTFDTTQSKYRLPDAMRTTQNPDELWEFIADSLKAFIDEQFPQGISEPIPLGFTFSFPASQNKINEGILQRWTKGFDIPNIENHDVVPMLQKQITKRNIPIEVVALINDTTGTLVASYYTDPETKMGVIFGTGVNGAYYDVCSDIEKLQGKLSDDIPPSAPMAINCEYGSFDNEHVVLPRTKYDITIDEESPRPGQQTFEKMSSGYYLGEILRLALMDMYKQGFIFKNQDLSKFDKPFVMDTSYPARIEEDPFENLEDTDDLFQNEFGINTTVQERKLIRRLSELIGARAARLSVCGIAAICQKRGYKTGHIAADGSVYNRYPGFKEKAANALKDIYGWTQTSLDDYPIKIVPAEDGSGAGAAVIAALAQKRIAEGKSVGIIGA
Regarding B4, the binding entry in experiment [2] was “binds”.

B5: Hxk2^S15D, V5- or GFP-tagged, in yeast extract (enzyme, UniProt P04807 1-486)
chain: MVHLGPKKPQARKGDMADVPKELMQQIENFEKIFTVPTETLQAVTKHFISELEKGLSKKGGNIPMIPGWVMDFPTGKESGDFLAIDLGGTNLRVVLVKLGGDRTFDTTQSKYRLPDAMRTTQNPDELWEFIADSLKAFIDEQFPQGISEPIPLGFTFSFPASQNKINEGILQRWTKGFDIPNIENHDVVPMLQKQITKRNIPIEVVALINDTTGTLVASYYTDPETKMGVIFGTGVNGAYYDVCSDIEKLQGKLSDDIPPSAPMAINCEYGSFDNEHVVLPRTKYDITIDEESPRPGQQTFEKMSSGYYLGEILRLALMDMYKQGFIFKNQDLSKFDKPFVMDTSYPARIEEDPFENLEDTDDLFQNEFGINTTVQERKLIRRLSELIGARAARLSVCGIAAICQKRGYKTGHIAADGSVYNRYPGFKEKAANALKDIYGWTQTSLDDYPIKIVPAEDGSGAGAAVIAALAQKRIAEGKSVGIIGA
As to B5, the binding result in experiment [5] is reported as “no binding”.

B6: Hxk2^K13A, V5- or GFP-tagged, in yeast extract (enzyme, UniProt P04807 1-486)
chain: MVHLGPKKPQARAGSMADVPKELMQQIENFEKIFTVPTETLQAVTKHFISELEKGLSKKGGNIPMIPGWVMDFPTGKESGDFLAIDLGGTNLRVVLVKLGGDRTFDTTQSKYRLPDAMRTTQNPDELWEFIADSLKAFIDEQFPQGISEPIPLGFTFSFPASQNKINEGILQRWTKGFDIPNIENHDVVPMLQKQITKRNIPIEVVALINDTTGTLVASYYTDPETKMGVIFGTGVNGAYYDVCSDIEKLQGKLSDDIPPSAPMAINCEYGSFDNEHVVLPRTKYDITIDEESPRPGQQTFEKMSSGYYLGEILRLALMDMYKQGFIFKNQDLSKFDKPFVMDTSYPARIEEDPFENLEDTDDLFQNEFGINTTVQERKLIRRLSELIGARAARLSVCGIAAICQKRGYKTGHIAADGSVYNRYPGFKEKAANALKDIYGWTQTSLDDYPIKIVPAEDGSGAGAAVIAALAQKRIAEGKSVGIIGA
For B6, the binding entry in experiment [6] is “no binding”.

B7: Hxk2^D106A, V5- or GFP-tagged, in yeast extract (enzyme, UniProt P04807 1-486)
chain: MVHLGPKKPQARKGSMADVPKELMQQIENFEKIFTVPTETLQAVTKHFISELEKGLSKKGGNIPMIPGWVMDFPTGKESGDFLAIDLGGTNLRVVLVKLGGDRTFATTQSKYRLPDAMRTTQNPDELWEFIADSLKAFIDEQFPQGISEPIPLGFTFSFPASQNKINEGILQRWTKGFDIPNIENHDVVPMLQKQITKRNIPIEVVALINDTTGTLVASYYTDPETKMGVIFGTGVNGAYYDVCSDIEKLQGKLSDDIPPSAPMAINCEYGSFDNEHVVLPRTKYDITIDEESPRPGQQTFEKMSSGYYLGEILRLALMDMYKQGFIFKNQDLSKFDKPFVMDTSYPARIEEDPFENLEDTDDLFQNEFGINTTVQERKLIRRLSELIGARAARLSVCGIAAICQKRGYKTGHIAADGSVYNRYPGFKEKAANALKDIYGWTQTSLDDYPIKIVPAEDGSGAGAAVIAALAQKRIAEGKSVGIIGA
In the case of B7, the binding result in experiment [7] is given as “no binding”.
